Laboratory results: PubChem BioAssay AID1259308 (NCATS, 2017)

Test: 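Candidate targets for better recombinant protein yield in mammalian cells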 (primary screen)
System: human HEK293 embryonic kidney cells stably expressing firefly luciferase (HEK-CMV-Luc2-Hygro)
Reagent: single siRNA against human genes, 0.8 pmol siRNA per well
Time to read-out: 72 h
Measurement: 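Luciferase light (ONE-Glo) measured on one replicate plate set and viability (CellTiter-Glo) on the other, scaled to a negative control siRNA, with robust z-scores and luciferase per cell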
Direction: total luciferase, z-score: higher = more reporter protein produced
Call rule: 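Active when the median/MAD z-score for overall luciferase is greater than 3; a gene was taken forward for validation with new siRNAs if at least two of its three siRNAs passed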
Calls: active = raised luciferase; inactive = no rise
In all, the deposit lists about 59,000 reagents; this is a random part of them. About 1,510 of all reagents (2.6%) were called active. 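Calls use total luciferase alone and ignore viability, so some active siRNAs may act by altering cell number.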 A number with no mark means an inactive call. The numbers tell different reagents against one gene apart. Not all columns of the deposit are shown.

total luciferase, z-score, by gene and reagent
ZNF815P (GeneID 401303): #1 -0.381; #2 0.506; #3 0.188
CELF2 (GeneID 10659): #1 -1.34; #2 0.189; #3 -0.801
NPM1P39 (GeneID 440577): #1 -0.622; #2 1.8; #3 0.471
ILF3 (GeneID 3609): #1 -0.474; #2 0.103; #3 0.0435
BAG6 (GeneID 7917): #1 -0.859; #2 0.387; #3 1.48

Copied from the list.
Result of ILF3 (GeneID 3609) #2 in “total luciferase, z-score”: 0.103
Under “total luciferase, z-score”, BAG6 (GeneID 7917) #3 is entered as 1.48
Value for ILF3 (GeneID 3609) #1 under “total luciferase, z-score”: -0.474

The results go on.
total luciferase, z-score, by gene and reagent
SRGAP1 (GeneID 57522): #1 -0.214; #2 1.93; #3 -1.24
JAM2 (GeneID 58494): #1 1.97; #2 -1.19; #3 0.0277
ALG9 (GeneID 79796): #1 -1.13; #2 -1.19; #3 -0.049
KIF27 (GeneID 55582): #1 0.417; #2 0.723; #3 -1.2
TPD52L2 (GeneID 7165): #1 -0.743; #2 2.01; #3 -0.698
ZZEF1 (GeneID 23140): #1 0.4; #2 -1.43; #3 -0.545
PZP (GeneID 5858): #1 0.263; #2 0.524; #3 -0.621
MTHFD2L (GeneID 441024): #1 -0.405; #2 -1.03; #3 0.271
